Assay results reported in publication PMC2816676, “DNA Binding of Centromere Protein C (CENPC) Is Stabilized by Single-Stranded RNA”.

Legend:
Experiment in all cases: EMSA
GST = conditions: 10 mM Tris pH 7.5, 50 mM NaCl, 0.5 mM DTT, 0.5 mM EDTA, 1 mM MgCl2, 4% glycerol, 20 µl, on ice 20 min; 5% PAGE; recombinant protein; label: 33P 5' end label (unlabeled as competitor)
[1] = test system: CENPC exon 12 peptide (Zea mays); conditions: 10 mM Tris pH 7.5, 50 mM NaCl, 0.5 mM DTT, 0.5 mM EDTA, 1 mM MgCl2, 4% glycerol, 20 µl, on ice 20 min, 5% PAGE, label: 33P 5' end label (unlabeled as competitor)
[2] = biological target: T1, CENPC exon 9-12 (Zea mays) (UniProt Q9XHE1); conditions: 10 mM Tris pH 7.5, 50 mM NaCl, 0.5 mM DTT, 0.5 mM EDTA, 1 mM MgCl2, 4% glycerol, 20 µl, on ice 20 min, 5% PAGE, recombinant protein, residues 503-624, label: 33P 5' end label (unlabeled as competitor)
T1 sequence (looked up): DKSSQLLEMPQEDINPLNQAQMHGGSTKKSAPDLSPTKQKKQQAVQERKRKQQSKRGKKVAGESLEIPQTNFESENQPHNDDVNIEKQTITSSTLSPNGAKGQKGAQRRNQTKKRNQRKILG

[3] = biological target: T2, CENPC exon 9-10 peptide (Zea mays) (UniProt Q9XHE1); conditions: 10 mM Tris pH 7.5, 50 mM NaCl, 0.5 mM DTT, 0.5 mM EDTA, 1 mM MgCl2, 4% glycerol, 20 µl, on ice 20 min, 5% PAGE, residues 503-563, label: 33P 5' end label (unlabeled as competitor)
T2 sequence (looked up): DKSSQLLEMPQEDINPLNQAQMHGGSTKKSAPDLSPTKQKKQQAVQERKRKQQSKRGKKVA

[4] = biological target: T3, CENPC full length (Zea mays) (UniProt Q9XHE1); conditions: 10 mM Tris pH 7.5, 50 mM NaCl, 0.5 mM DTT, 0.5 mM EDTA, 1 mM MgCl2, 4% glycerol, 20 µl, on ice 20 min; 5% PAGE; recombinant protein; residues 1-701; protein details: His (pET28a); label: 33P 5' end label
T3 sequence (looked up): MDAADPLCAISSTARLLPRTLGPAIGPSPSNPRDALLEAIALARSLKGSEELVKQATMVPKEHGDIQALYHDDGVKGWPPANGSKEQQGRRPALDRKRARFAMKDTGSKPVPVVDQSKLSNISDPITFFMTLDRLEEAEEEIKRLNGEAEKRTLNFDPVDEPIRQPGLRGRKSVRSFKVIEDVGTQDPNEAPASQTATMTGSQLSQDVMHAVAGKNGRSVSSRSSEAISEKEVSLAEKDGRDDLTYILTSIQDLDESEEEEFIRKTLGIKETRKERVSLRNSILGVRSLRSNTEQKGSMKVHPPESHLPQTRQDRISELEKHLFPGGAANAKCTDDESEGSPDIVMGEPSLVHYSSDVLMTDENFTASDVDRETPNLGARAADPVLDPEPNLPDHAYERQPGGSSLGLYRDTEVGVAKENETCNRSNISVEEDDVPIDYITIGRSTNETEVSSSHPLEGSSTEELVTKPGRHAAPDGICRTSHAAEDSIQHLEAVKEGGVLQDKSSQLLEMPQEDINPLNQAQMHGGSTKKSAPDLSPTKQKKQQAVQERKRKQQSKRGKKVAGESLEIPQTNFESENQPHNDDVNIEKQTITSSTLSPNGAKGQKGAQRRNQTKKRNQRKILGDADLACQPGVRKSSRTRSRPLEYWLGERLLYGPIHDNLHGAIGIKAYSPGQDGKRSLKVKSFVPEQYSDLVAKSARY

## AATGGGTGACGTGCGGCAACGAAATTGCGCGAAACCACCCCAAA (double strand) [CentC 44 bp DSDNA]
GST
  binding result: no binding
[1]; no SSRNA
  binding result: no binding
[1]; plus 24 nt SSRNA
  binding result: binds
[2]; no SSRNA
  binding result: no binding
[2]; plus 10 nt RNA CCGUUUUCAG
  binding result: no binding
[2]; plus 24 nt SSDNA
  binding result: binds
[2]; plus 24 nt SSRNA CCGUUUUCAGAAUGGGUGACGUGC
  binding result: binds
[2]; plus 48 nt poly-GT SSDNA
  binding result: binds
[2]; plus 167 nt CentC RNA
  binding result: no binding
[2]; plus unlabeled 44 bp DSDNA
  binding result: no binding
[3]; no SSRNA
  binding result: no binding
[3]; plus 24 nt SSRNA
  binding result: binds

## CCGUUUUCAGAAUGGGUGACGUGC [CentC 24 nt SSRNA]
[4]
  binding result: binds more weakly

For some of these results: A negative result means that nothing was seen under these conditions. For some of these results: At least one verdict was read from the data and is not stated in words by the source. For some of these results: Where a protein sequence is shown, tags need not be part of it. For some of these results: A weaker result is weaker than the reference pair of the same experiment. For some of these results: Construct, isoform or probe ends are uncertain for at least one entry.
